Patent US20210009693A1
Substitutions are numbered along the chain they refer to. Results are given in words; binding and its absence hold for the method and conditions named. Some results given as binding are weak or reduced against the parent protein; the word gives no strength. Blank lines part the entries; values can stand above or below the binder they belong to.

Sequences of proteins named here, by UniProt entry; tags and fusion partners are left off. A change or cut given only in a name is not applied to a line headed by its entry. A line that says so, or that is headed by a name, gives the form on record, which may keep a tag or linker. Residues count along the entry.
UniProt Q9NZQ7: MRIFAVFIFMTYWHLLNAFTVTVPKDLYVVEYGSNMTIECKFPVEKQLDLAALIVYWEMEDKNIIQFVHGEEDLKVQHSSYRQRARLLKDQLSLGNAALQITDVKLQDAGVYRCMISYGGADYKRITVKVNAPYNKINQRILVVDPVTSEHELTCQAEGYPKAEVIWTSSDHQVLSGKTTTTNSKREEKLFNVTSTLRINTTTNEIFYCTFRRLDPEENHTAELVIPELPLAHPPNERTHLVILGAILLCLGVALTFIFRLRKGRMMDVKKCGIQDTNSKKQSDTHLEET
human PD-L1 expressed on cells: residues 19-290 of Q9NZQ7
Recombinant Human PD-L1/CD274 Protein (hPD-L1-his) (Q9NZQ7, form named): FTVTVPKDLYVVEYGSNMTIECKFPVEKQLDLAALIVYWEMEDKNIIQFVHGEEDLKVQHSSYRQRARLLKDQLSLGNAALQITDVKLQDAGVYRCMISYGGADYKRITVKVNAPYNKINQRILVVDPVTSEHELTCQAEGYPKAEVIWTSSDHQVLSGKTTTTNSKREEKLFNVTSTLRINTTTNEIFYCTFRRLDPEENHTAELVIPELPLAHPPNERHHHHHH

Experiments:
[1] = molecular target: Recombinant Human PD-L1/CD274 Protein (hPD-L1-his) (human) (UniProt Q9NZQ7); experiment: ELISA on coated hPD-L1-his
[2] = molecular target: human PD-L1 expressed on cells (human) (UniProt Q9NZQ7); experiment: FACS, IFN-gamma stimulated HCC827 cells
[3] = molecular target: Human PD-L1/CD274 with C-Fc Tag (hPD-L1-Fc) (human) (UniProt Q9NZQ7); experiment: blocking ELISA on coated hPD-L1-Fc; blocked ligand: biotinylated hPD-1-N297A
[4] = molecular target: human PD-L1 expressed on cells (human) (UniProt Q9NZQ7); experiment: blocking FACS on HCC827 cells; blocked ligand: biotinylated hPD-1-N297A
[5] = molecular target: Recombinant Human PD-L1/CD274 Protein (hPD-L1-his) (human) (UniProt Q9NZQ7); experiment: ELISA on coated hPD-L1-his; bound at pH7.4, then 2 h at pH5.5
[6] = molecular target: Recombinant Human PD-L1/CD274 Protein (hPD-L1-his) (human) (UniProt Q9NZQ7); experiment: ELISA on coated hPD-L1-his; bound at pH7.4, then 2 h at pH7.4
[7] = molecular target: human PD-L1 expressed on cells (human) (UniProt Q9NZQ7); experiment: flow cytometry on anti-CD3/anti-CD28-activated human blood cells
[8] = molecular target: wild type human PD-L1-Fc protein (SEQ ID NO: 107) (human); experiment: ELISA on hPD-L1-Fc captured from 293T supernatant, 0.5 ug/ml biotinylated antibody
[9] = molecular target: human PD-L1 expressed on cells (human) (UniProt Q9NZQ7); experiment: flow cytometry (relative mean fluorescence) on human peripheral blood cells activated 3 days with anti-CD3 and anti-CD28; detection with anti-human IgG-APC
[10] = molecular target: human PD-L1 expressed on cells (human) (UniProt Q9NZQ7); experiment: flow cytometry (relative mean fluorescence) on human peripheral blood cells activated with anti-CD3 and anti-CD28, beside unstimulated cells; detection with anti-human IgG-APC

B2: 23A11-H3L5 CHO (antibody, V domains shown)
VH: QVQLVQSGAEVKKPGASVKLSCKASGYIFTTYWIHWVKQRPGQGLEWIGMIQPNSGGTKYNDQFKNRATLTVDKSISTAYMELSRLTSDDTAVYYCARGAGTVDYFDYWGQGTTLSISS
VL: DIVLTQSPASLAVSVGQRATITCRASESVDIYGNSFMHWYQQKPGQAPKLLIYRASNLESGIPARFSGSGSRTDFTLTINPVEAQDTATYYCQQSNDDPYTFGGGTKLETK
binding [4]: binds

B4: 23F11-H4L4 (antibody, V domains shown)
VH: B2 VH with I34M, D62E, Q63K, N66K, R67K, T113S, S116T, I117V
VL: B2 VL with A47P, Q85N, N96T, D97E, T110I
binding [7]: binds | binding [8]: binds | binding [9]: binds | binding [2]: binds | binding [10]: binds | binding [3]: binds | binding [4]: binds

B5: 23A11-H5L5 (antibody, V domains shown)
VH: B2 VH with Q1L, L20V, K38R, R40A, A68V, K74T, T87R
VL: B2 VL with Q85N
binding [1]: binds | binding [2]: binds | binding [3]: binds

Now from value to binder:

binding [1]: binds | binding [2]: binds | binding [3]: binds
B1: 23A11-H5L3 (antibody, V domains shown)
VH: B2 VH with Q1L, L20V, K38R, R40A, A68V, K74T, T87R
VL: B2 VL with A47S, Q85N, Q93H

binding [5]: binds | binding [6]: binds | binding [4]: binds
B3: 23F11-H4L4 (produced in CHO cells) (antibody, V domains shown)
VH: B2 VH with I34M, D62E, Q63K, N66K, R67K, T113S, S116T, I117V
VL: B2 VL with A47P, N96T, D97E, T110I

binding [8]: binds | binding [2]: binds | binding [3]: binds | binding [4]: binds
B6: 23A11-H3L5 (antibody, V domains shown)
VH: B2 VH with Q1L
VL: B2 VL with Q85N
